Test results published in PMC6070864, “The Bacteriophage T4 MotB Protein, a DNA-Binding Protein, Improves Phage Fitness”.

Target: MotB containing a C-terminal intein tag with a chitin binding domain (bacteriophage T4)
Test: pull-down; lysate of BL21(DE3)/pLysE producing MotB-Intein/CBD applied to chitin resin; washed with CB buffer containing 500 mM NaCl, then 1 M NaCl; resin proteins on SDS-PAGE (Coomassie), bands identified by mass spectrometry; MotB not denatured, host DNA present

binding: binds
B1: StpA (protein, UniProt P0ACG1 1-134)
chain: MSVMLQSLNNIRTLRAMAREFSIDVLEEMLEKFRVVTKERREEEEQQQRELAERQEKISTWLELMKADGINPEELLGNSSAAAPRAGKKRQPRPAKYKFTDVNGETKTWTGQGRTPKPIAQALAEGKSLDDFLI

No constants are given. Whether binding was seen depends on the method and setting. Binding seen in cells or lysates may run through a third protein. Binding can be weak; no strength is given.
